# Measurements published in PubChem BioAssay AID588463 (National Center for Advancing Translational Sciences (NCATS), 2011).
# Out of some 1,200 compounds screened, about 15 (1%) were called active. Another 7% or so got no clear call; they are omitted. Calls follow the shape of the dose curve; as a rule, active = well fitted activation curve with a large enough effect; inconclusive = small, poorly fitted or top-dose-only effect; inactive = flat fitted curve, though single readings scatter. Some of the results follow.
# Biological target: Beta-2 adrenergic receptor (Homo sapiens) (UniProt P07550)
# Assay: qHTS assay of beta-arrestin-biased ligands of beta2-adrenergic receptor: Hit Validation;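 as to activation: plate controls were DMSO for no effect and maximal isoproterenol or metaproterenol response for full effect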
# Conditions: cell-based beta-arrestin recruitment to beta2AR; Potency: activation; series mostly up to 46.1 µM; activation: at the top concentration
# Text: The concept of biased agonism is an emerging concept of molecular pharmacology which proposes that seven transmembrane receptors (7TMRs) or G protein-coupled receptors (GPCRs), exist in multiple signaling conformations and complexes and that ligands (either agonists or antagonists) can induce signaling biased responses for distinct signal transduction cascades.
# Furthermore, accumulating evidence over the last decade has drawn attention to a novel function of beta-arrestins as signal transducers that scaffold various signaling molecules upon activation of 7TMRs. […] This beta-arrestin-biased signaling presumably leads to distinct physiological outcomes from those by G protein activation.
# Additionally, the active receptor conformations which […] on this beta-arrestin signaling are likely different from those activating G protein signaling
# The goal of this screening project will be to discover and optimize novel beta-arrestin-biased ligands for beta2-AR signaling. A luminescent cell-based assay for beta2-AR-mediated agonism, known as the Tango assay, has been validated in which ligand binding of a recombinant beta2-AR and subsequent recruitment of a recombinant beta-arrestin lead to the release of the transcriptional activator tTA, which upregulates transcription of a tTA-responsive luciferase gene.
# NIH Molecular Libraries Probe Production Network [MLPCN]
# NIH Chemical Genomics Center [NCGC]
# PI: Bryan Roth (UNC) and Bob Lefkowitz (Duke)
# NCGC Assay Protocol Summary:
# Tango cells were dispensed into white, solid, tissue-culture-treated 1536-well plates at 1500 cells/well in DMEM, containing 1% fetal bovine serum (FBS). Then, 23 nL of compounds or DMSO were delivered to each well using a pin tool. Plates were incubated at 37 degrees C, 5% CO2 for 18 hr. Then 2.5 uL luminescent substrate mix (in-house prepared: 150 mM Tris-Cl, pH 7.6, 3 mM MgCl2, 1% Triton X-100, 5 mM DTT, 0.5 mM CoA, 0.15 mM ATP, 0.44 mM D-luciferin, final concentrations) was added to each well. Plates were then incubated for 15 minutes at room temperature, and subsequently measured on a ViewLux plate reader for luminescent signal using a clear filter with a 10 second exposure and 2x binning. The %Activity was determined from the corrected luminescence values.
# Concentration-response curves were fitted to the signals arising from the resulting luminescence. The concentration-effect curves were then classified based on curve quality (r2), response magnitude and degree of measured activity, and compounds were subsequently categorized based on their curve class.
# Keywords: biased agonism, beta2-AR, beta-arrestin, GPCR, 7TMR, Tango, luminescence, MLSMR, MLPCN, NIH Roadmap, qHTS, NCGC
# Potency is read from the fitted curve at half-maximal effect.
SMILES,activation,Potency
CCN(CC)S(=O)(=O)c1ccc(N/N=C(\C)c2ccc(OC)cc2O)nc1,inactive: -0.771%,–
CCc1ccccc1NC(=S)N=Nc1c(O)n(C)c2ccc(S(=O)(=O)N3CCOCC3)cc12,inactive: -1.71%,–
Cc1ccc(OCc2nnc(SC3CCc4ccccc4C3=O)n2C)cc1 (centres undefined),inactive: -3.08%,–
Cc1cc([N+](=O)[O-])ccc1NC(=O)CCC(=O)N1CCCCCC1,inactive: -3.62%,–
O=C(Nc1nccs1)c1ccc2ccccc2n1,inactive: -2.82%,–
CCc1n[nH]c(=S)n1/N=C/c1ccc(N(CC)CC)cc1,inactive: -2.67%,–
COC(=O)c1ccc(CSc2cc(C)c3ccccc3n2)o1,inactive: -4.03%,–
NC(=S)N=Nc1c(O)n(CCCl)c2ccccc12,inactive: -3.25%,–
O=C1C=CC(O)(c2cc(=O)c3c(O)cc(O)cc3o2)C=C1,inactive: -3.11%,–
O=C(/C=C\c1ccccc1)Oc1cccc2cccnc12,inactive: -1.19%,–
O=C(NC1CCCCC1)N(Cc1cc2cc3c(cc2[nH]c1=O)OCCO3)CC1CCCO1 (centres undefined),inactive: -1.51%,–
C/C(=N/NC(=O)c1ccoc1C)c1ccc(NC(=O)C2CCCC2)cc1,inactive: -2.13%,–
CCCC(=O)Nc1ccc(Nc2ccccc2)cc1,inactive: -1.72%,–
CCOc1ccc(/C=N/NC(=O)Cc2csc(Nc3cccc(C(F)(F)F)c3)n2)c(OCC)c1,inactive: 4.88%,–
Nc1ccc(OC(=O)Nc2ccc(O)cc2)cc1,inactive: -3.3%,–
COc1ccc(C(=O)N/N=C/C(Br)=C/c2ccccc2)cc1,inactive: -3.41%,–
Cc1ccc(NC(=S)NC(NC(=O)c2ccccc2)C(Cl)(Cl)Cl)c(C)c1 (centres undefined),inactive: 5.97%,–
O=C(Nc1ccccc1)N1CCCC(c2nc(-c3cccs3)no2)C1 (centres undefined),inactive: -3.47%,–
O=C(NC(=S)Nc1ccccn1)c1ccccc1,inactive: -1.67%,–
CC(C)c1ccccc1-n1c(SCC(=O)N2CCc3ccccc3C2)nc2ccccc2c1=O,inactive: 0.217%,–
COc1ccc(N2C(=O)C3C(C2=O)C(C(=O)c2ccccc2)N2CCCC32)cc1 (centres undefined),inactive: -0.0662%,–
O=C(CCCCn1c(=O)[nH]c2ccsc2c1=O)NCC1CCCO1 (centres undefined),inactive: -3.14%,–
Cc1cs/c(=N\N=C2CCCCC2)n1Cc1ccco1,inactive: 0.204%,–

SMILES,activation,Potency
C=CCNc1nc(Cl)nc(NC2CCCCC2)n1,inactive: 3.6%,–
COc1ccc(OC)c(S(=O)(=O)N/N=C(/C)c2c[nH]c3ccccc23)c1,inactive: -2.33%,–
Cc1ccc(-c2ccc(/C=N/NC(N)=S)o2)cc1,inactive: -2.59%,–
Cc1cc(C)cc(NC(=O)CC23CC4CC(C2)CC(n2nnc(C)n2)(C4)C3)c1,inactive: -2.29%,–
COc1ccc(NC(=S)N/N=C/c2ccc(F)cc2)cc1OC,inactive: -1.69%,–
COc1ccc(OC)c(C(=O)CSc2nnc(Cc3cccs3)n2C)c1,inactive: -2.89%,–
C=C(C)CNC(=S)N/N=C/c1ccco1,inactive: -3.63%,–
S=c1[nH]nc(-c2ccco2)n1/N=C/C(Cl)=C/c1ccccc1,inactive: 0.611%,–
CCCCN(CC)CCNC(=S)Nc1ccc2nc(N3CCN(C)CC3)cc(C)c2c1,inactive: -0.517%,–
COc1cc(CN(C2CCCCC2)S(=O)(=O)c2ccc(S(=O)(=O)N(C)C3CCCCC3)cc2)cc(OC)c1OC,inactive: -2.71%,–
COc1ccc2nc(/N=C/c3c(C)[nH]n(-c4ccc(C)cc4C)c3=O)sc2c1,inactive: -1.66%,–
O=C1C2C(C(=O)N1/N=C/c1ccc([N+](=O)[O-])o1)C1C=CC2C12CC2 (centres undefined),inactive: 4.77%,–
C/C(=N\NC(=S)NC1CCCCC1)c1ccc(C)o1,inactive: -1.03%,–
CC(C)Oc1ccc(/C=N/NC(N)=S)cc1,inactive: -1.48%,–
O=C1c2ccccc2C(=O)N1CCC(c1ccc(F)cc1)c1ccco1 (centres undefined),inactive: 0.249%,–
O=S(=O)(N1CCOCC1)N1CCOCC1,inactive: -3.06%,–
CCCCn1c(SCC(=O)NC2CCCC2)nnc1-c1ccco1,inactive: -5.63%,–
COC(=O)c1c(NC(=O)CN2CCC3(O)CCCCC3C2c2ccc(F)cc2)sc(C)c1C (centres undefined),inactive: -0.0028%,–
C(=N\Nc1ncnc2ccccc12)/c1ccccc1,inactive: -2.43%,–
CC(=O)Oc1ccc2cc(-c3ccccc3)c(=O)oc2c1,inactive: -2.83%,–
COc1cccc(/C=N/NC(=O)c2cc(-c3cccn3C)n[nH]2)c1O,inactive: -2.59%,–
CC1C/C(=N\NC(=S)NCc2ccccc2)CC(C)(C)C1 (centres undefined),inactive: -2.9%,–
O=C(NC(=S)Nc1cccc(NC(=S)NC(=O)c2ccco2)n1)c1ccco1,inactive: -4.64%,–

SMILES,activation,Potency
FC(F)(F)c1nc2ccccc2nc1N/N=C\c1ccccc1,inactive: -2.93%,–
CCn1nnc(NC(=S)NC(=O)c2ccc(-c3cccc(Cl)c3)o2)n1,inactive: -2.96%,–
CCNS(=O)(=O)c1ccc(NC(=O)c2ccccc2SCCOC)cc1,inactive: 0.717%,–
Oc1[nH]c(N=C2N=c3ccccc3=N2)c2ccccc12,inactive: -2.42%,–
CC(C)NS(=O)(=O)c1ccc(NC(=O)C(C)Oc2ccc(C(=O)c3ccccc3)cc2)cc1 (centres undefined),inactive: 0.57%,–
S=C(Nc1ccccn1)NC1CCCC1,inactive: -0.402%,–
CC1(C)CC(=O)C(C2=NC3(CCCCCC3)Cc3ccccc32)=C(O)C1,inactive: -4.3%,–
CCSc1nnc(NC(=O)c2ccc3ccccc3n2)s1,inactive: -4.1%,–
CCC(NC(C)C)C(O)c1ccc(O)c2[nH]c(=O)ccc12 (centres undefined),–,active: 16.4 nM
O=C(/C=C(O)/C=C/c1ccc(O)cc1)/C=C/c1ccc(O)cc1,inactive: -0.266%,–
CCC(=O)Nc1cccc(-c2nnc(SCC(=O)c3ccccc3)n2C)c1,inactive: -3.27%,–
C=CC[n+]1c(-c2ccc(C)cc2)csc1NNC(=O)Nc1ccccc1,inactive: -2.26%,–
CC1=NN(C(N)=S)C(=O)C1N=Nc1cccc([N+](=O)[O-])c1 (centres undefined),inactive: -1.35%,–
COc1ccc(CNC(=S)N/N=C/c2ccc(OC)c(OC)c2)cc1,inactive: 7.73%,–
Cn1c(-c2csc(-c3ccccc3)n2)n[nH]c1=S,inactive: -4.54%,–
CCn1c(NC(=O)C2CCCCC2)nc2ccccc21,inactive: -1.58%,–
Cc1cc(=S)nc(-c2ccccn2)[nH]1,inactive: -4.06%,–
CC(C)(C)NNC(=S)Nc1cccc(C(F)(F)F)c1,inactive: -2.43%,–
COc1ccc(NC(=S)NC(=O)c2ccc(Br)o2)cc1,inactive: -3.83%,–
O=C(N/N=C/c1cn(-c2ccccc2)nc1-c1cc2ccccc2o1)c1cccnc1,inactive: -6.28%,–
NC(=S)N/N=C\c1ccc(-c2cccc(Cl)c2Cl)o1,inactive: -2.78%,–
CC1=NOC(=O)/C1=C\c1ccc(-c2cccc(Cl)c2)o1,inactive: -3.81%,–
O=C(N/N=C/C(Br)=C\c1ccccc1)c1ccc2nc[nH]c2c1,inactive: -1.86%,–

SMILES,activation,Potency
CC1=NN(C(N)=S)C(=O)C1N=Nc1ccc([N+](=O)[O-])cc1 (centres undefined),inactive: -2.82%,–
CNC(=S)N/N=C/C1=CCC2CC1C2(C)C (centres undefined),inactive: -0.49%,–
CCc1nnc(NC(=O)CN2CCN(Cc3cccc(F)c3)CC2)s1,inactive: -1.33%,–
Cc1ccc(-c2nc(CSCC(=O)NC3CCN(Cc4ccccc4)CC3)c(C)o2)cc1,inactive: 4.73%,–
CCc1cc2c(=O)[nH]c(-c3ccccn3)nc2s1,inactive: -2.3%,–
COc1ccc(NC(=S)c2ccc3ccccc3n2)cc1,inactive: -2.14%,–
Oc1ccc(NCc2cccs2)cc1,inactive: -3.55%,–
Cc1cc(/C=N/NC(N)=S)c(C)n1-c1ccc(Cl)c(Cl)c1,inactive: -2.08%,–
Cc1ccccc1NC(=O)CSc1nc(N)c2c3c(sc2n1)CSC(C)(C)C3,inactive: -2.74%,–
COC(=O)N1C(=O)[C@@](c2ccccc2)(C2CCCC2)N1C(=O)OC,inactive: 0.318%,–
COc1ccc2nc(NC(=S)N(C)C)sc2c1,inactive: -2.69%,–
Cc1cc(O)c(C(C)C)cc1C1(c2cc(C(C)C)c(O)cc2C)OC(=O)c2ccccc21,inactive: -3.75%,–
CCNC(=S)N/N=C(\C)c1cccc(OC)c1,inactive: -2.69%,–
Cn1c(SCC(=O)NC2CC2)nnc1-c1cccs1,inactive: -3.46%,–
CC(C)C(C)NC(=O)CSc1nnc(-c2c[nH]c3ccccc23)o1 (centres undefined),inactive: -3.28%,–
CC(C)c1ccc(C(=O)CSc2ncn[nH]2)cc1,inactive: -2.7%,–
C=CCN(CC=C)C(=S)NC(=O)c1ccc(OC)cc1,inactive: -1.86%,–
Cc1ccc(C)c(/C=C/C(=O)c2ccccc(=O)c2O)c1,inactive: -2.54%,–
CC(=O)/C(=N\Nc1ccc(Cl)cc1Cl)Sc1cccc2cccnc12,inactive: -3.04%,–
O=C(Nc1cc(=O)[nH]c2ncnn12)c1ccccc1,inactive: -4.34%,–
COc1cc(/C(C)=N/NC(=S)NC(C)C)cc(OC)c1OC,inactive: -1.14%,–
Cc1cccc(NC(=O)/C=C/c2ccc([N+](=O)[O-])s2)c1,inactive: -1.06%,–
COc1cc2sc3ccc(-c4ccc(CN5CCOCC5)cc4)cc3c(=O)c2cc1OC,inactive: -3.75%,–

SMILES,activation,Potency
Fc1ccc(/C=N/NC(=S)Nc2cccnc2)cc1,inactive: -5.11%,–
CCOC(=O)C1CCN(Cc2ccc(C(=O)OC)cc2)CC1,inactive: -2.98%,–
C#CCn1c(=NC(=O)CSC(C)=O)sc2cc(F)ccc21,inactive: -6.9%,–
CCOC(=O)c1c(C)nc2c(c1-c1ccccc1)C(=O)CC(C)(C)C2,inactive: -2.51%,–
CC(C)c1ccc(Nc2nnc(SC3CCOC3=O)s2)cc1 (centres undefined),inactive: -2.2%,–
O=C(CSc1cccc[n+]1[O-])c1cc(Cl)ccc1Cl,inactive: -0.362%,–
COCCCNC(=S)N/N=C/c1ccccc1O,inactive: 0.208%,–
O=C(O)c1ccc(/C=N/Nc2nnnn2-c2ccccc2)cc1,inactive: 0.504%,–
CCNC(=S)N/N=C/c1cc(C)n(-c2ccc(Cl)cc2)c1C,inactive: -4.86%,–
COc1ccc(N2C(=O)C3C(C2=O)C(C(=O)c2ccc(Cl)cc2)N2CCCC32)cc1 (centres undefined),inactive: -1.29%,–
CCOc1ccc(NC(=O)CN(c2ccc([N+](=O)[O-])cc2)S(=O)(=O)c2ccccc2)cc1,inactive: 3.12%,–
C=CCn1c(O)c(N=NC(=S)Nc2cccc(C)c2)c2ccccc21,inactive: -6.44%,–
CNC(=S)N/N=C1\C(=O)c2cccc3cccc1c23,inactive: -3.52%,–
O=C(CN1C(=O)C2C3CC(C(Br)C3Br)C2C1=O)N1CCN(Cc2ccccc2)CC1 (centres undefined),inactive: -1.93%,–
CCCCCOCC1CC(C/C(C)=N/NC(N)=S)C(=O)O1 (centres undefined),inactive: -1.64%,–
O=C(CNC(=O)c1ccc2c(c1)OCO2)N/N=C(Br)/C=C/c1ccccc1,inactive: -4.42%,–
COc1cccc(N2CCN(C(=O)/C=C/c3ccco3)CC2)c1,inactive: -1.71%,–
C=CCNC(=S)NN=C1CCCCCCC1,inactive: -2.44%,–
Cc1ccccc1NC(=S)N=Nc1c(O)n(C)c2ccc(S(=O)(=O)N3CCOCC3)cc12,inactive: -3.43%,–
OC(CC1CC12c1ccccc1-c1ncccc12)(c1ccccc1)c1ccccc1 (centres undefined),inactive: 9.42%,–
COc1ccc(/C(C)=N/NC(=S)NCCc2ccccc2)cc1,inactive: 2.75%,–
